Measurements reported in US7732416B2, “Avermectins substituted in the 4″-position having pesticidal properties” (Merial Limited, priority 2001, dated 2010).
Some entries share one result that the patent states for a list of compounds.

Key:
Type in all cases: in vivo
[1] = tested on: Tetranychus urticae; test: Example B7 Activity against Tetranychus urticae (sprayed bean plants); settings: 12.5 ppm spray liquor, mixed population, 25° C., 6 days
[2] = tested on: Spodoptera littoralis; test: Example B1 Activity against Spodoptera littoralis (sprayed soya bean plants); settings: 12.5 ppm spray liquor, first-stage caterpillars, 3 days
[3] = tested on: Heliothis virescens; test: Example B3 Activity against Heliothis virescens (eggs on filter paper); settings: 0.8 ml test solution on 0- to 24-hour-old eggs, evaluation after 6 days
[4] = tested on: Diabrotica balteata; test: Example B6 Activity against Diabrotica balteata (sprayed maize seedlings); settings: 12.5 ppm spray liquor, second-stage larvae, 6 days
[5] = tested on: Plutella xylostella; test: Example B4 Activity against Plutella xylostella caterpillars (sprayed cabbage plants); settings: 12.5 ppm spray liquor, first-stage caterpillars, 3 days
[6] = tested on: Spodoptera littoralis; test: Example B2 Activity against Spodoptera littoralis, systemic (maize seedlings); settings: maize seedlings 6 days in test solution, L1 larvae on cut leaves, 4 days

Measured: reduction in the pest population

CCC(C)C1OC2(C=CC1C)CC1CC(CC=C(C)C(OC3CC(OC)C(OC4CC(OC)C(NCc5c(Cl)ccc(Cl)c5Cl)C(C)O4)C(C)O3)C(C)C=CC=C3COC4C(O)C(C)=CC(C(=O)O1)C34O)O2 (stereo not drawn) [1.085]
more than 80%: all assays above

CCC(C)[C@H]1O[C@]2(C=C[C@@H]1C)C[C@@H]1C[C@@H](C/C=C(\C)[C@@H](O[C@H]3C[C@H](OC)[C@@H](O[C@H]4C[C@H](OC)[C@H](NCc5cc(Cl)ccc5O)[C@H](C)O4)[C@H](C)O3)C(C)/C=C/C=C3\CO[C@@H]4[C@H](O)C(C)=C[C@@H](C(=O)O1)[C@]34O)O2 (stereo partly drawn) [1.097]
more than 80%: all assays above

CCC(C)[C@H]1O[C@]2(C=C[C@@H]1C)C[C@@H]1C[C@@H](C/C=C(\C)[C@@H](O[C@H]3C[C@H](OC)[C@@H](O[C@H]4C[C@H](OC)[C@H](NCc5cccc(OC(F)(F)F)c5)[C@H](C)O4)[C@H](C)O3)C(C)/C=C/C=C3\CO[C@@H]4[C@H](O)C(C)=C[C@@H](C(=O)O1)[C@]34O)O2 (stereo partly drawn) [1.114]
more than 80%: all assays above

CCC(C)C1OC2(C=CC1C)CC1CC(CC=C(C)C(OC3CC(OC)C(OC4CC(OC)C(NCc5cccc(F)c5)C(C)O4)C(C)O3)C(C)C=CC=C3COC4C(O)C(C)=CC(C(=O)O1)C34O)O2 (stereo not drawn) [1.010]
more than 80%: all assays above

CCC(C)C1OC2(C=CC1C)CC1CC(CC=C(C)C(OC3CC(OC)C(OC4CC(OC)C(NCc5ccco5)C(C)O4)C(C)O3)C(C)C=CC=C3COC4C(O)C(C)=CC(C(=O)O1)C34O)O2 (stereo not drawn) [1.070]
more than 80%: all assays above

CCC(C)C1OC2(C=CC1C)CC1CC(CC=C(C)C(OC3CC(OC)C(OC4CC(OC)C(NCc5cccc(Br)c5)C(C)O4)C(C)O3)C(C)C=CC=C3COC4C(O)C(C)=CC(C(=O)O1)C34O)O2 (stereo not drawn) [1.005]
more than 80%: all assays above

CCC(C)C1OC2(C=CC1C)CC1CC(CC=C(C)C(OC3CC(OC)C(OC4CC(OC)C(NCc5c(O)cc(OC)cc5OC)C(C)O4)C(C)O3)C(C)C=CC=C3COC4C(O)C(C)=CC(C(=O)O1)C34O)O2 (stereo not drawn) [1.135]
more than 80%: all assays above

CCC(C)C1OC2(C=CC1C)CC1CC(CC=C(C)C(OC3CC(OC)C(OC4CC(OC)C(NCc5cc([N+](=O)[O-])ccc5O)C(C)O4)C(C)O3)C(C)C=CC=C3COC4C(O)C(C)=CC(C(=O)O1)C34O)O2 (stereo not drawn) [1.019]
more than 80%: all assays above

CCC(C)C1OC2(C=CC1C)CC1CC(CC=C(C)C(OC3CC(OC)C(OC4CC(OC)C(NCc5cc6ccccc6c6ccccc56)C(C)O4)C(C)O3)C(C)C=CC=C3COC4C(O)C(C)=CC(C(=O)O1)C34O)O2 (stereo not drawn) [1.013]
more than 80%: all assays above

CCC(C)C1OC2(C=CC1C)CC1CC(CC=C(C)C(OC3CC(OC)C(OC4CC(OC)C(NCCC(C)C)C(C)O4)C(C)O3)C(C)C=CC=C3COC4C(O)C(C)=CC(C(=O)O1)C34O)O2 (stereo not drawn) [1.023]
more than 80%: all assays above

CCC(C)C1OC2(C=CC1C)CC1CC(CC=C(C)C(OC3CC(OC)C(OC4CC(OC)C(NCc5ccc(OC(F)(F)C(F)F)cc5)C(C)O4)C(C)O3)C(C)C=CC=C3COC4C(O)C(C)=CC(C(=O)O1)C34O)O2 (stereo not drawn) [1.126]
more than 80%: all assays above

CCCCCCCCCCCCNC1C(C)OC(OC2C(C)OC(OC3C(C)=CCC4CC(CC5(C=CC(C)C(C(C)CC)O5)O4)OC(=O)C4C=C(C)C(O)C5OCC(=CC=CC3C)C45O)CC2OC)CC1OC (stereo not drawn) [1.151]
more than 80%: all assays above

CCC(C)C1OC2(C=CC1C)CC1CC(CC=C(C)C(OC3CC(OC)C(OC4CC(OC)C(NCc5cc(OC)c(OC)cc5[N+](=O)[O-])C(C)O4)C(C)O3)C(C)C=CC=C3COC4C(O)C(C)=CC(C(=O)O1)C34O)O2 (stereo not drawn) [1.132]
more than 80%: all assays above

CCC(C)C1OC2(C=CC1C)CC1CC(CC=C(C)C(OC3CC(OC)C(OC4CC(OC)C(NCc5cc(Br)c(OC)cc5OC)C(C)O4)C(C)O3)C(C)C=CC=C3COC4C(O)C(C)=CC(C(=O)O1)C34O)O2 (stereo not drawn) [1.129]
more than 80%: all assays above

CCC(C)C1OC2(C=CC1C)CC1CC(CC=C(C)C(OC3CC(OC)C(OC4CC(OC)C(NCc5c[nH]c6ccccc56)C(C)O4)C(C)O3)C(C)C=CC=C3COC4C(O)C(C)=CC(C(=O)O1)C34O)O2 (stereo not drawn) [1.127]
more than 80%: all assays above

CCC(C)C1OC2(C=CC1C)CC1CC(CC=C(C)C(OC3CC(OC)C(OC4CC(OC)C(NCc5cccnc5)C(C)O4)C(C)O3)C(C)C=CC=C3COC4C(O)C(C)=CC(C(=O)O1)C34O)O2 (stereo not drawn) [1.008]
more than 80%: all assays above

CCC(C)[C@H]1O[C@]2(C=C[C@@H]1C)C[C@@H]1C[C@@H](C/C=C(\C)[C@@H](O[C@H]3C[C@H](OC)[C@@H](O[C@H]4C[C@H](OC)[C@H](NCc5ccccc5O)[C@H](C)O4)[C@H](C)O3)C(C)/C=C/C=C3\CO[C@@H]4[C@H](O)C(C)=C[C@@H](C(=O)O1)[C@]34O)O2 (stereo partly drawn) [1.101]
more than 80%: all assays above

CCC(C)[C@H]1O[C@]2(C=C[C@@H]1C)C[C@@H]1C[C@@H](C/C=C(\C)[C@@H](O[C@H]3C[C@H](OC)[C@@H](O[C@H]4C[C@H](OC)[C@H](NCc5cccc(O)c5)[C@H](C)O4)[C@H](C)O3)C(C)/C=C/C=C3\CO[C@@H]4[C@H](O)C(C)=C[C@@H](C(=O)O1)[C@]34O)O2 (stereo partly drawn) [1.100]
more than 80%: all assays above

CCC(C)C1OC2(C=CC1C)CC1CC(CC=C(C)C(OC3CC(OC)C(OC4CC(OC)C(NCc5cc(Cl)cc(Cl)c5Cl)C(C)O4)C(C)O3)C(C)C=CC=C3COC4C(O)C(C)=CC(C(=O)O1)C34O)O2 (stereo not drawn) [1.084]
more than 80%: all assays above
